# Test system: sigma-2 receptors in hepatic membrane homogenates
# Assay: blocking of WC-21 photoaffinity labeling of the ~24 kD protein band
# Format: binding
# Settings: rat liver membrane homogenates, photo cross-linked with WC-21, western blot
structure (smiles),measurement,value
O=C(CCCN1CCC(O)(c2ccc(Cl)cc2)CC1)c1ccc(F)cc1 [haloperidol],blocking of WC-21 labeling of the ~24 kD protein band,blocked

# From paper PMC3624020 (Nature communications, 2011)
